# Experimental data from the supplement of paper PMC8728848.
# The other results are listed elsewhere or left out.
# B1: LlpA (Burkholderia cenocepacia) (protein)
# chain: MGSSHHHHHHSSGLVPRGSHKILGSNETLSAGNVVYSDNGQYHLAMQTDGNLVVYGPTGAVWQSQTSGSGGNRAVMQGDGNLVIYRADNTAAWSSKTAHPGAFLAVQDDGNVVIYWPRPAWASNTSDPATQQSAESKYLASGSTMSAGQTVTVAQYMLVFQADGNLVLYKNGGNPIWSTGTQGKGATYAVMQSDGNFVIYAGSTALWSTKTNGANGAQLVLQSDGNLVIYAPTAAWSTKFGLVTAPTSTSTSNNGPGSGICVGVCPPHPLNGNPFSPVGVGTTGLGFPTPGYPGAAF
# Key:
# Assay in all cases: glycan array binding signal (z-score within array); higher = stronger binding
# Details in all cases: glycan notation: IUPAC condensed, linker removed
# [1] = molecular target: Man(a1-2)Man(a1-3)[Man(a1-2)Man(a1-6)]Man
# How it was run: (§1)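 Glycan array binding is given as a within-array Z-score, which can be read as non-binding when negative. The arrays, 3228 of them, came from the Consortium for Functional Glycomics database and were retained only where the protein sequence was available. Z-scores were averaged across arrays of the same protein sequence at different concentrations or buffers and across linkers.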
# [2] = molecular target: Man(a1-2)Man(a1-3)[Man(a1-2)Man(a1-6)]Man(a1-6)[Man(a1-2)Man(a1-2)Man(a1-3)]Man
# How it was run: as §1
# [3] = molecular target: Man(a1-2)Man(a1-3)[Man(a1-2)Man(a1-6)]Man(a1-6)[Man(a1-2)Man(a1-2)Man(a1-3)]Man(b1-4)GlcNAc(b1-4)GlcNAc
# How it was run: as §1
# [4] = molecular target: Man(a1-2)Man(a1-3)[Man(a1-6)]Man(a1-6)[Man(a1-2)Man(a1-3)]Man(b1-4)GlcNAc(b1-4)GlcNAc
# How it was run: as §1
# [5] = molecular target: Man(a1-2)Man(a1-6)[Man(a1-3)]Man(a1-6)[Man(a1-2)Man(a1-2)Man(a1-3)]Man
# How it was run: as §1
# [6] = molecular target: Man(a1-2)Man(a1-6)[Man(a1-3)]Man(a1-6)[Man(a1-2)Man(a1-2)Man(a1-3)]Man(b1-4)GlcNAc(b1-4)GlcNAc
# How it was run: as §1
# Man(a1-3)[Man(a1-6)]Man = molecular target: Man(a1-3)[Man(a1-6)]Man
# How it was run: as §1
# [7] = molecular target: Man(a1-3)[Man(a1-6)]Man(a1-6)[Man(a1-2)Man(a1-3)]Man(b1-4)GlcNAc(b1-4)GlcNAc
# How it was run: as §1
# [8] = molecular target: Man(a1-3)[Man(a1-6)]Man(a1-6)[Man(a1-3)]Man
# How it was run: as §1
# [9] = molecular target: Man(a1-3)[Man(a1-6)]Man(a1-6)[Man(a1-3)]Man(b1-4)GlcNAc(b1-4)GlcNAc
# How it was run: as §1
# [10] = molecular target: Man(a1-3)[Man(a1-6)]Man(b1-4)GlcNAc(b1-4)GlcNAc
# How it was run: as §1
# [11] = molecular target: Man(a1-3)[Man(a1-6)]Man(b1-4)GlcNAc(b1-4)[Fuc(a1-6)]GlcNAc
# How it was run: as §1
# Man(a1-6)Man = molecular target: Man(a1-6)Man
# How it was run: as §1
# Man(b1-4)GlcNAc = molecular target: Man(b1-4)GlcNAc
# How it was run: as §1
# MurNAc(b1-4)GlcNAc = molecular target: MurNAc(b1-4)GlcNAc
# How it was run: as §1
# Neu5Ac(a2-3)Gal = molecular target: Neu5Ac(a2-3)Gal
# How it was run: as §1
# [12] = molecular target: Neu5Ac(a2-3)Gal(b1-3)GalNAc
# How it was run: as §1
# [13] = molecular target: Neu5Ac(a2-3)Gal(b1-3)GalNAc(b1-3)Gal(a1-4)Gal(b1-4)Glc
# How it was run: as §1
# [14] = molecular target: Neu5Ac(a2-3)Gal(b1-3)GalNAc(b1-4)Gal(b1-4)Glc
# How it was run: as §1
# [15] = molecular target: Neu5Ac(a2-3)Gal(b1-3)GalNAc(b1-4)[Neu5Ac(a2-3)]Gal(b1-4)Glc
# How it was run: as §1
# [16] = molecular target: Neu5Ac(a2-3)Gal(b1-3)GalNAc(b1-4)[Neu5Ac(a2-8)Neu5Ac(a2-3)]Gal(b1-4)Glc
# How it was run: as §1
# [17] = molecular target: Neu5Ac(a2-3)Gal(b1-3)GalNAc6S
# How it was run: as §1
# [18] = molecular target: Neu5Ac(a2-3)Gal(b1-3)GlcNAc
# How it was run: as §1
# [19] = molecular target: Neu5Ac(a2-3)Gal(b1-3)GlcNAc(b1-2)Man
# How it was run: as §1
# [20] = molecular target: Neu5Ac(a2-3)Gal(b1-3)GlcNAc(b1-2)Man(a1-3)[GlcNAc(b1-4)][Neu5Ac(a2-3)Gal(b1-3)GlcNAc(b1-2)Man(a1-6)]Man(b1-4)GlcNAc(b1-4)GlcNAc
# How it was run: as §1
# [21] = molecular target: Neu5Ac(a2-3)Gal(b1-3)GlcNAc(b1-2)Man(a1-3)[Neu5Ac(a2-3)Gal(b1-3)GlcNAc(b1-2)Man(a1-6)]Man(b1-4)GlcNAc(b1-4)GlcNAc
# How it was run: as §1
# [22] = molecular target: Neu5Ac(a2-3)Gal(b1-3)GlcNAc(b1-2)[Neu5Ac(a2-3)Gal(b1-3)GlcNAc(b1-4)]Man(a1-6)[Neu5Ac(a2-3)Gal(b1-3)GlcNAc(b1-2)Man(a1-3)]Man(b1-4)GlcNAc(b1-4)GlcNAc
# How it was run: as §1
# [23] = molecular target: Neu5Ac(a2-3)Gal(b1-3)GlcNAc(b1-3)Gal(b1-3)GlcNAc
# How it was run: as §1
# [24] = molecular target: Neu5Ac(a2-3)Gal(b1-3)GlcNAc(b1-3)Gal(b1-4)GlcNAc
# How it was run: as §1
# [25] = molecular target: Neu5Ac(a2-3)Gal(b1-3)GlcNAc(b1-3)GalNAc
# How it was run: as §1
# [26] = molecular target: Neu5Ac(a2-3)Gal(b1-3)GlcNAc(b1-6)GalNAc
# How it was run: as §1
# [27] = molecular target: Neu5Ac(a2-3)Gal(b1-3)GlcNAc6S
# How it was run: as §1
# [28] = molecular target: Neu5Ac(a2-3)Gal(b1-3)[Fuc(a1-4)]GlcNAc
# How it was run: as §1
# [29] = molecular target: Neu5Ac(a2-3)Gal(b1-3)[Fuc(a1-4)]GlcNAc(b1-3)Gal(b1-3)[Fuc(a1-4)]GlcNAc
# How it was run: as §1
# [30] = molecular target: Neu5Ac(a2-3)Gal(b1-3)[Fuc(a1-4)]GlcNAc(b1-3)Gal(b1-4)[Fuc(a1-3)]GlcNAc
# How it was run: as §1
# [31] = molecular target: Neu5Ac(a2-3)Gal(b1-3)[GlcNAc(b1-6)]GalNAc
# How it was run: as §1
# [32] = molecular target: Neu5Ac(a2-3)Gal(b1-3)[Neu5Ac(a2-6)]GalNAc
# How it was run: as §1
binder,measurement,setting,value
B1,glycan array binding signal (z-score),[1],-0.276
same,glycan array binding signal (z-score),[2],0.07
same,glycan array binding signal (z-score),[3],-0.406
same,glycan array binding signal (z-score),[4],-1.08
same,glycan array binding signal (z-score),[5],-0.809
same,glycan array binding signal (z-score),[6],0.303
same,glycan array binding signal (z-score),Man(a1-3)[Man(a1-6)]Man,0.937
same,glycan array binding signal (z-score),[7],-0.282
same,glycan array binding signal (z-score),[8],0.03
same,glycan array binding signal (z-score),[9],0.539
same,glycan array binding signal (z-score),[10],-0.516
same,glycan array binding signal (z-score),[11],0.157
same,glycan array binding signal (z-score),Man(a1-6)Man,-0.739
same,glycan array binding signal (z-score),Man(b1-4)GlcNAc,1.28
same,glycan array binding signal (z-score),MurNAc(b1-4)GlcNAc,-0.491
same,glycan array binding signal (z-score),Neu5Ac(a2-3)Gal,0.735
same,glycan array binding signal (z-score),[12],0.105
same,glycan array binding signal (z-score),[13],0.88
same,glycan array binding signal (z-score),[14],0.063
same,glycan array binding signal (z-score),[15],-0.265
same,glycan array binding signal (z-score),[16],-1.72
same,glycan array binding signal (z-score),[17],-0.591
same,glycan array binding signal (z-score),[18],0.496
same,glycan array binding signal (z-score),[19],-0.745
same,glycan array binding signal (z-score),[20],-0.74
same,glycan array binding signal (z-score),[21],-1.03
same,glycan array binding signal (z-score),[22],0.118
same,glycan array binding signal (z-score),[23],0.36
same,glycan array binding signal (z-score),[24],-0.712
same,glycan array binding signal (z-score),[25],-0.238
same,glycan array binding signal (z-score),[26],0.06
same,glycan array binding signal (z-score),[27],0.24
same,glycan array binding signal (z-score),[28],-0.357
same,glycan array binding signal (z-score),[29],-0.66
same,glycan array binding signal (z-score),[30],0.851
same,glycan array binding signal (z-score),[31],0.313
same,glycan array binding signal (z-score),[32],-1.08

# Random excerpt: 2 entries already listed.
binder,measurement,setting,value
B1,glycan array binding signal (z-score),[30],0.851
same,glycan array binding signal (z-score),[5],-0.809
